# Values quoted from earlier work as cited in patent US7932036B1, “Methods of determining acute myeloid leukemia response to treatment with farnesyltransferase” (Veridex, LLC, priority 2008, dated 2011).
# At least one compound was matched to its structure with a doubt left.
# Tested on: AML and MDS
# Conditions: cited from earlier work
smiles,measurement,value
Cn1cncc1[C@@](N)(c1ccc(Cl)cc1)c1ccc2c(c1)c(-c1cccc(Cl)c1)cc(=O)n2C [tipifarnib],complete response rates,≤ 15%
